Library screen at single concentrations

Chains of the proteins cited; added tags and fusions are not shown. Residues count along the entry.
UniProt Q8IDJ8, 1-583: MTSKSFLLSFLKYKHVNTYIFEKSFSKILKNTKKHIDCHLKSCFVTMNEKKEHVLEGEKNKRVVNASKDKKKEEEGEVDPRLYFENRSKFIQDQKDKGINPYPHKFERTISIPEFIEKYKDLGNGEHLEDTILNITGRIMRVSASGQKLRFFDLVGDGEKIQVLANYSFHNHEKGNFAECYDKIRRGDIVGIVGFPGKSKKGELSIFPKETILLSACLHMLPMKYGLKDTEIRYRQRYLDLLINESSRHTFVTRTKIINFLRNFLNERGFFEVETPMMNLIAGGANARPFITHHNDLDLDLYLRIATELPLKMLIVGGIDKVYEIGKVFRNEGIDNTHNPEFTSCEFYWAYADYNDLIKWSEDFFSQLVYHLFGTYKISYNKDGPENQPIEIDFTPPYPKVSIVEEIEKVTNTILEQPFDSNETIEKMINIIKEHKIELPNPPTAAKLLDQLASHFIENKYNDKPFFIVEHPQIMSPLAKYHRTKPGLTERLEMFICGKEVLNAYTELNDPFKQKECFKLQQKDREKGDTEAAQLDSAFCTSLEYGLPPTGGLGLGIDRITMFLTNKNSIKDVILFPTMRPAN
UniProt I6X8D2, whole entry: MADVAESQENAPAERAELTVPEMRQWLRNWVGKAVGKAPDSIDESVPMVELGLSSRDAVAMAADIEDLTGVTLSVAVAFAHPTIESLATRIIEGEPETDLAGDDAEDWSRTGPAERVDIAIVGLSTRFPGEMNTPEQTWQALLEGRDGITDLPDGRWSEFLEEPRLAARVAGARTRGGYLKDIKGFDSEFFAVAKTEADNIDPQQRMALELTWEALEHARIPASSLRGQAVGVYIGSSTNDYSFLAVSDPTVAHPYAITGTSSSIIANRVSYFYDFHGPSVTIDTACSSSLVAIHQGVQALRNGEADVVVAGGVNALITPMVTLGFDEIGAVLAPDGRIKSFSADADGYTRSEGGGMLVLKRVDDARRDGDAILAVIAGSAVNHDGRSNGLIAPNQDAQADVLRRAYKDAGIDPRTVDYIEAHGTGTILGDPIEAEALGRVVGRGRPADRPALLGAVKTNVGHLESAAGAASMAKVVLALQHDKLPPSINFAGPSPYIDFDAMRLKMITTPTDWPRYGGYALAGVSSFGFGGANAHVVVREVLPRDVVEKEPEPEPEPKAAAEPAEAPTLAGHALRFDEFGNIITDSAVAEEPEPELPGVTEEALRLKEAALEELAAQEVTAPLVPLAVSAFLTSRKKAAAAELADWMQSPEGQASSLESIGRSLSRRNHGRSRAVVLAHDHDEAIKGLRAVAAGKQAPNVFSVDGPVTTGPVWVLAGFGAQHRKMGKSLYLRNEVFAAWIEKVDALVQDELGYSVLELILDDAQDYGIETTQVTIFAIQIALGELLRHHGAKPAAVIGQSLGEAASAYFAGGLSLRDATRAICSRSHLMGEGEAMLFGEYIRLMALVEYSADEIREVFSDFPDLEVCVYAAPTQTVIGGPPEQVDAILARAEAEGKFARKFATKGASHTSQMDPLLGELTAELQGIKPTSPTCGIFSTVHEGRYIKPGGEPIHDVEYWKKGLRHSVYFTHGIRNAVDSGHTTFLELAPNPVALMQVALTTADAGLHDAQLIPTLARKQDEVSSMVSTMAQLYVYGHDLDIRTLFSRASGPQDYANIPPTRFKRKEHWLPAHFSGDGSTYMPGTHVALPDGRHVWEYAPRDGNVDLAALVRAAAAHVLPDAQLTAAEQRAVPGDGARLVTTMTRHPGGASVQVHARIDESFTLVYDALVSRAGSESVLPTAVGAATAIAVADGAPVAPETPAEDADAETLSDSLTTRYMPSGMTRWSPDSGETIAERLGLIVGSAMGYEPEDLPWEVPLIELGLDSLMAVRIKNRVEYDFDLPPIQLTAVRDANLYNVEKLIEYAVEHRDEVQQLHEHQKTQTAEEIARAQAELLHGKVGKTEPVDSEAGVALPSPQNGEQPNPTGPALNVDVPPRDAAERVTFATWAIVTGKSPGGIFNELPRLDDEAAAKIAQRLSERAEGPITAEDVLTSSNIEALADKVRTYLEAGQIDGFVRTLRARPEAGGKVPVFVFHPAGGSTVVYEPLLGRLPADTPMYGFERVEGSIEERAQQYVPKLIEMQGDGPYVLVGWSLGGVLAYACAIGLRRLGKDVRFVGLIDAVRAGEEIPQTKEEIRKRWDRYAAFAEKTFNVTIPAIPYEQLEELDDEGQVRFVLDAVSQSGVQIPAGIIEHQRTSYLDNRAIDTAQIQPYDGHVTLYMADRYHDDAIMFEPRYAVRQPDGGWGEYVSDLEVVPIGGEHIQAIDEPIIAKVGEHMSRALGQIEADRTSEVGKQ
UniProt P9WPC5, whole entry: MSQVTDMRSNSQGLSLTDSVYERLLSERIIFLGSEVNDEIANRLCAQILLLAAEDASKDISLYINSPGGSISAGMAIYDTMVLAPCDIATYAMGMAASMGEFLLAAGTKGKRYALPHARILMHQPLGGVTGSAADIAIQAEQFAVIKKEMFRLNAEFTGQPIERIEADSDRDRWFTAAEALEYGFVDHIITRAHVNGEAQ
UniProt P9WPC3, whole entry partner: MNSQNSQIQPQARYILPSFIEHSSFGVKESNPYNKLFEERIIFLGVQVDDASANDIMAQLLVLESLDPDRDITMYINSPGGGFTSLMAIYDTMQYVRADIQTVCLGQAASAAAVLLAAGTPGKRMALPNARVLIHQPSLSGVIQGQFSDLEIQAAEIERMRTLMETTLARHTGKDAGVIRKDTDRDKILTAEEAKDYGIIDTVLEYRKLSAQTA

PfKRS1: 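Enzyme assay of the cytosolic lysyl-tRNA synthetase in 384-well plates, read by luminescence. Target: Lysine-tRNA ligase, Plasmodium falciparum 3D7 (UniProt Q8IDJ8). Concentration: 30 µM. Direction is inferred from only a few compounds that gave an IC50; most scored high, so higher reads as stronger inhibition. Size under these conditions: about 69,000 compounds, about 49 of them at 50% or above in at least one test.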
Pks13 thioesterase: 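Enzyme assay of the thioesterase domain of polyketide synthase 13; the read-out is not stated. Target: Polyketide synthase Pks13, Mycobacterium tuberculosis (UniProt I6X8D2). Compounds at 30 µM. The record gives no direction; the compounds picked for IC50 retests had high values, so higher reads as stronger inhibition. Size under these conditions: about 67,000 compounds, about 300 of them at 50% or above in at least one test.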
ClpP1P2: 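ClpP1P2, Mycobacterium tuberculosis (UniProt P9WPC5 and UniProt P9WPC3). Protease assay of ClpP1P2, read by the AMC dye that it sets free. Compounds at 50 µM. Direction is inferred from only a few compounds that gave an IC50; most scored high, so higher reads as stronger inhibition. Most other retested compounds had strongly negative values. Of about 69,000 compounds tested this way, about 10 (0.015%) reached 50% or more in at least one test.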

Values are the deposited “Percent Effect”, in %. How 0% and 100% were set is not recorded. Most values in the screen are low, and negative values occur. Compounds were drawn at random from those tested, without regard to their results.

| # | Compound | PfKRS1 | Pks13 thioesterase | ClpP1P2 |
|---|---|---|---|---|
| 1 | `CC(C)CCN1CC2(CCCN(C(=O)c3cscn3)C2)CCC1=O` (stereo not given) | 5.669% | -10.93% | -10.01% |
| 2 | `CN(Cc1ccco1)C(=O)NC(Cn1ccnc1)C(C)(C)C` (stereo not given) | 8.276% | -16.73% | -7.568% |
| 3 | `COc1cc(C)c(C(C)NC(=O)NCCCn2cncn2)cc1OC` (stereo not given) | 0.5202% | -25.29% | -17.83% |
| 4 | `COCCN1C[C@@H]2CCCO[C@@H]2[C@H](NC(=O)c2cnccn2)C1` | 5.6% | -0.6399% | 2.019% |
| 5 | `CC(Cc1cccs1)C(=O)NCc1cccc(N2CCCC2=O)c1` (stereo not given) | 11.31% | -10.48% | -5.159% |
| 6 | `NC(=O)CS(=O)(=O)Cc1csc(-c2ccc(F)cc2)n1` | -0.9111% | -7.929% | -1.992% |
| 7 | `Cc1cc(C)c(S(=O)(=O)Nc2cccc3c2OCCO3)cc1C(=O)O` | 2.709% | 5.32% | -4.024% |
| 8 | `Cc1cc(-c2cc(F)ccc2C(=O)O)nc(C2CCCN(C)C2)n1` (stereo not given) | 2.499% | 19.46% | -0.8969% |
| 9 | `O=c1[nH]c(-c2ccccc2F)nc2c1CCNC2` | -1.79% | 14.01% | 5.541% |
| 10 | `CCS(=O)(=O)N1CCC2(CC(=O)N(c3cnn(C)c3)C2)C1` (stereo not given) | 6.338% | 3.865% | -10.05% |
| 11 | `Cc1nc(C(C)(C)NC(=O)Nc2cccc(C#N)c2)no1` | 4.718% | -11.89% | -2.991% |
| 12 | `CCOCCC(=O)Nc1cccc(Cl)c1COC` | 0.2354% | -2.038% | -4.144% |
| 13 | `O=C(NCc1nn(-c2ccccc2)c2c1CCC2)NCC1COCCO1` (stereo not given) | 2.535% | -8.512% | -54.07% |
| 14 | `Cc1noc([C@@H]2CC[C@@H]3[C@@H](CCN3S(=O)(=O)C3CC3)O2)n1` | 4.155% | -1.892% | 0.8681% |
| 15 | `O=C1CC[C@@H]2[C@@H](CCN2Cc2ccncc2)N1c1ccccc1` | -4.224% | 0.5165% | -1.391% |
| 16 | `O=C(NCC1CCS(=O)(=O)C1)c1cccc(CN2CCCC2)c1` (stereo not given) | 3.263% | -9.586% | 0.0956% |
| 17 | `O=C(CC1CCC2(CC1)CCN(Cc1cccnc1)CC2)N1CC=CC1` | -0.02315% | -5.23% | -3.867% |
| 18 | `Cc1cccc(OCCNC(=O)C(C)S(=O)(=O)c2ccccn2)c1` (stereo not given) | 2.055% | -7.369% | 6.491% |
| 19 | `CC(=O)N1[C@H](Cn2cncn2)C[C@@H]2CN(C(=O)NC3CC3)CC[C@@H]21` | 0.6691% | 12.16% | -8.597% |
| 20 | `CC1CCN(S(=O)(=O)NCc2ccccc2Cn2cncn2)CC1` | -2.565% | -7.068% | 10.7% |
| 21 | `CC(C)Nc1ccc2nc(C3CCN(C(C)C)CC3)nn2c1` | 13.21% | 1.12% | 2.65% |
| 22 | `O=C(NCCc1cc(N2CCOCC2)nc(N2CCCC2)n1)C1CC1` | 2.647% | -10.92% | -5.418% |
| 23 | `CN(Cc1cn2c(n1)CN(C(=O)c1cccnc1)CC2)Cc1ccco1` | -2.076% | -33.12% | -2.788% |
| 24 | `COc1cccc(CN(C)CCCn2cnc3c(N)ncnc32)c1` | 2.226% | 0.42% | 7.279% |
| 25 | `CCc1nc(CN2CCCN(C(=O)C(C)n3ccnc3)CC2)cs1` (stereo not given) | 0.7999% | -16.2% | 0.4748% |
| 26 | `O=C(CCCn1cnc2ccccc2c1=O)Nc1nc[nH]n1` | -1.213% | -8.673% | 3.049% |
| 27 | `CC(C)N(Cc1cccc(Cl)c1)Cc1nnsc1Cl` | 3.287% | 7.037% | -7.182% |
| 28 | `COCC(=O)N1CCN(Cc2coc(-c3cccc(F)c3)n2)CC1` | 9.61% | -7.53% | 0.02927% |
| 29 | `Cc1ccc(OCC(=O)N2CCCC(n3nc(C)nc3C)C2)cc1` (stereo not given) | -1.3% | 0.7554% | -7.442% |
| 30 | `CCC(CN1CCCC1)NC(=O)C1(c2ccc(F)cc2)CC1` (stereo not given) | 3.113% | 17.71% | -19.22% |
| 31 | `CSCC(=O)N1CCCC1c1noc(C2CC2)n1` (stereo not given) | -1.98% | -39.21% | 11.09% |
| 32 | `CC(=O)Nc1nc(CN2CCCC2c2cnn(C)c2)cs1` (stereo not given) | 7.383% | -21.16% | -1.317% |
| 33 | `CC(C)c1nc(C(=O)N(C)c2ccc(Br)cn2)cs1` | 2.856% | -33.84% | -7.481% |
| 34 | `O=C1CC2(CCN(C(=O)c3ccccn3)CC2)Oc2c(Br)cc(Br)cc21` | -0.1305% | 22.26% | -13.03% |
| 35 | `FC1(F)CCN(c2ccccc2)CC12CCN(c1ncccn1)C2` (stereo not given) | 2.14% | -8.584% | -9.105% |
| 36 | `Cc1sc2ccccc2c1S(=O)(=O)NCCNC(=O)C(C)C` | 0.2354% | -9.937% | -19.36% |
| 37 | `CC(CO)CNC(=O)c1cc2cccc(F)c2o1` (stereo not given) | 4.338% | -8.477% | -15.21% |

Some entries from above, unchanged:

{"compound": "CCOCCC(=O)Nc1cccc(Cl)c1COC", "PfKRS1": 0.2354, "Pks13 thioesterase": -2.038, "ClpP1P2": -4.144}
{"compound": "NC(=O)CS(=O)(=O)Cc1csc(-c2ccc(F)cc2)n1", "PfKRS1": -0.9111, "Pks13 thioesterase": -7.929, "ClpP1P2": -1.992}

Source: ChEMBL document CHEMBL3988442, “University of Dundee, Small-Polar-MMV Screening Library” (2021).